Results: the supplement of paper PMC8616043
Where a name gives a salt, the structure may show the parent alone. The list shows a part of the results. Repeats in this data set agree poorly, so a single value says little.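 PR50, a 50-repeat proline–arginine dipeptide protein from C9ORF72 (ALS/FTD), was expressed by transfection in U-2 OS human cells stably carrying a GFP sensor with import and classical export signals. Per-well nuclear-minus-cytoplasm GFP, normalized between in-plate DMSO (low) and PR-only (high), was scored versus other test wells; compounds well below zero were hits reversing PR.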

test system: U-2 OS NCT-C biosensor cells expressing PR50; test: Z-score of normalised NCT-C biosensor translocation index in PR50-expressing cells; higher = more nuclear biosensor (more disrupted nuclear export); conditions: 3 µM; 24 h

Structure (SMILES) | Z-score
CC(C)OC(=O)CCC/C=C\C[C@@H]1[C@@H](CC[C@@H](O)CCc2ccccc2)[C@H](O)C[C@@H]1O [Latanoprost] | inactive: 0.17
COc1cc(C)c(/C=C/C(C)=C/C=C/C(C)=C/C(=O)O)c(C)c1C [Acitretin] | inactive: -0.193
C[n+]1cccc(C(=O)[O-])c1 [Trigonelline·HCl] | inactive: -0.302
O=c1[nH]c(=O)n([C@H]2C[C@H](O)[C@@H](CO)O2)cc1F [Floxuridine] | inactive: 0.74
CNNCc1ccc(C(=O)NC(C)C)cc1 [Procarbazine·HCl] | inactive: -0.301
NS(=O)(=O)c1cc2c(cc1Cl)NCNS2(=O)=O [Hydrochlorothiazide] | inactive: 1.09
NS(=O)(=O)c1cc2c(cc1Cl)NCNS2(=O)=O [Hydrochloro thiazide] | inactive: 0.211
COc1cc(/C=C/C(=O)O)ccc1O [Ferulic acid] | inactive: 0.0854
CN(C)CCC=C1c2ccccc2C=Cc2ccccc21 [Cyclobenzaprine·HCl] | inactive: 0.229
O=C1c2cccc(O)c2C(=O)c2c(O)cc(CO)cc21 [Aloe-emodine] | inactive: 1.22
CN(C)CCc1c[nH]c2ccc(C[C@H]3COC(=O)N3)cc12 [Zolmitriptan] | inactive: -0.364
O=C(O)C1=CCNCC1 [Isoguvacine hydrochloride] | inactive: 0.0121
CNC(=C[N+](=O)[O-])NCCSCc1csc(CN(C)C)n1 [Nizatidine] | inactive: -0.499
CCC1=C[C@@H]2CN(C1)Cc1c([nH]c3ccccc13)[C@@](C(=O)OC)(c1cc3c(cc1OC)N(C)[C@H]1[C@@](O)(C(=O)OC)[C@H](OC(C)=O)[C@]4(CC)C=CCN5CC[C@]31[C@@H]54)C2 [Vinorelbine] | inactive: 1.67
CS(=O)(=O)Nc1ccc([N+](=O)[O-])cc1Oc1ccccc1 [Nimesulide] | inactive: -0.546
CCn1cc(C(=O)O)c(=O)c2cc(F)c(N3CCNC(C)C3)c(F)c21 (stereo unspecified) [Lomefloxacin hydrochloride] | inactive: -0.381
NC(=O)c1cc[n+](CC2=C(C(=O)O)N3C(=O)[C@@H](NC(=O)C(c4ccccc4)S(=O)(=O)[O-])[C@H]3SC2)cc1 (stereo partly specified) [Cefsulodin sodium salt hydrate] | inactive: -0.495
C[C@]12C=CC(=O)C=C1CC[C@@H]1C2=CC[C@]2(C)[C@@H](C(=O)CN3CCN(c4cc(N5CCCC5)nc(N5CCCC5)n4)CC3)CC[C@@H]12 | inactive: -0.576
C[C@]12C=CC(=O)C=C1CC[C@@H]1[C@@H]2C(=O)C[C@@]2(C)[C@H]1CC[C@]2(O)C(=O)CO [Prednisone] | inactive: -0.0993
Cn1c(=O)c2[nH]c(-c3ccc(S(=O)(=O)O)cc3)nc2n(C)c1=O [8-(p-Sulfophenyl) theophylline] | inactive: -0.324
C[C@@H]1O[C@@H]1P(=O)(O)O [Fosfomycin Calcium] | inactive: 0.839
C[C@@H]1O[C@@H]1P(=O)(O)O [Phosphomycin disodium salt] | inactive: 0.303

Structure (SMILES) | Z-score
COc1cc2c(cc1O)[C@@H](Cc1ccc(O)c(Oc3ccc(C[C@@H]4c5cc(OC)c(OC)cc5CCN4C)cc3)c1)N(C)CC2 [Daurisoline] | inactive: -1.19
CC[C@]12CCCN3CCc4c(n(c5ccccc45)C(=O)C1)[C@@H]32 [(-)-Eburnamonine] | inactive: -0.766
CC#CCOC(=O)c1c(C)nc2sc3c(c2c1N)CCC(O)C3 (stereo unspecified) | inactive: -0.961
NC(=O)c1ccncc1 [Isonicotinamide] | inactive: 1.02
Cn1cc(C2=C(c3ccc(Cl)cc3Cl)C(=O)NC2=O)c2ccccc21 | inactive: 0.405
CN(N=O)C(=O)N[C@@H](C=O)[C@@H](O)[C@H](O)[C@H](O)CO [Streptozotocin] | inactive: -0.609
Cc1ccc(C(=O)Nc2ccc(S(=O)(=O)O)c3cc(S(=O)(=O)O)cc(S(=O)(=O)O)c23)cc1NC(=O)c1cccc(NC(=O)Nc2cccc(C(=O)Nc3cc(C(=O)Nc4ccc(S(=O)(=O)O)c5cc(S(=O)(=O)O)cc(S(=O)(=O)O)c45)ccc3C)c2)c1 [Suramin hexasodium] | inactive: -0.658
CCc1cc(C(N)=S)ccn1 [Ethionamide] | inactive: 1.05
CC(=O)Nc1c(I)c(NC(C)=O)c(I)c(C(=O)O)c1I [Diatrizoate Meglumine] | inactive: -0.145
NC[C@@H]1O[C@H](O[C@@H]2[C@@H](CO)OC(O[C@@H]3[C@@H](O)[C@H](N)C[C@H](N)[C@H]3OC3O[C@H](CN)[C@@H](O)[C@H](O)[C@H]3N)[C@@H]2O)[C@H](N)[C@@H](O)[C@@H]1O (stereo partly specified) [Neomycin trisulfate] | inactive: 0.115
Cc1cn([C@@H]2C[C@@H](O)[C@H](CO)O2)c(=O)[nH]c1=O [Telbivudine] | inactive: -0.798
CN1CCN(C(c2ccccc2)c2ccc(Cl)cc2)CC1 (stereo unspecified) [Chlorcyclizine] | inactive: 0.665
Cc1c(Cl)cccc1Nc1ncccc1C(=O)O [Clonixin] | inactive: 5.29
C=C1/C(=C\C=C2/CCC[C@]3(C)[C@@H]([C@H](C)CCCC(C)(C)O)CC[C@@H]23)C[C@@H](O)C[C@@H]1O [Calcitriol] | inactive: -1.87
CC(C)(O/N=C(\C(=O)N[C@@H]1C(=O)N2C(C(=O)[O-])=C(C[n+]3ccccc3)CS[C@H]12)c1csc(N)n1)C(=O)O [Ceftazidime] | inactive: 0.929
CCc1c2c(nc3ccc(OC(=O)N4CCC(N5CCCCC5)CC4)cc13)-c1cc3c(c(=O)n1C2)COC(=O)[C@]3(O)CC [Irinotecan·HCl] | inactive: 1.84
C=CCN1CCc2c(cc(O)c(O)c2Cl)C(c2ccccc2)C1 (racemic) [(±)-Chloro-APB hydrobromide] | inactive: 0.259
CNCCC=C1c2ccccc2CCc2ccccc21 [Nortriptyline·HCl] | inactive: -0.394
CNCCC=C1c2ccccc2CCc2ccccc21 [Nortriptyline hydrochloride] | inactive: -0.0819
C[C@H]1[C@H](NC(=O)/C(=N\OC(C)(C)C(=O)O)c2csc(N)n2)C(=O)N1S(=O)(=O)O [Aztreonam] | inactive: 0.512
CC(=O)NNC(=O)N1Cc2ccccc2Oc2ccc(Cl)cc21 | inactive: -1.1
CNC[C@H](O)c1cccc(O)c1 [Phenylephrine] | inactive: -0.0358

Looked up one by one from the list above, 4 records:
Structure (SMILES) | Z-score
Cc1cn([C@@H]2C[C@@H](O)[C@H](CO)O2)c(=O)[nH]c1=O [Telbivudine] | inactive: -0.798
CCc1c2c(nc3ccc(OC(=O)N4CCC(N5CCCCC5)CC4)cc13)-c1cc3c(c(=O)n1C2)COC(=O)[C@]3(O)CC [Irinotecan·HCl] | inactive: 1.84
C=CCN1CCc2c(cc(O)c(O)c2Cl)C(c2ccccc2)C1 (racemic) [(±)-Chloro-APB hydrobromide] | inactive: 0.259
CC[C@]12CCCN3CCc4c(n(c5ccccc45)C(=O)C1)[C@@H]32 [(-)-Eburnamonine] | inactive: -0.766

Additional results follow:

Structure (SMILES) | Z-score
CNC[C@H](O)c1cccc(O)c1 [(R)-(-)-  Phenylephrine hydrochloride] | inactive: 0.0825
CN1C(=O)CC(C)(c2ccccc2)C1=O (stereo unspecified) [Methsuximide] | inactive: -0.762
[Cl-].[Li+] [Lithium chloride] | inactive: 0.348
CCCCCCN(CCCCCC)C(=O)Cc1c(-c2ccc(F)cc2)[nH]c2ccccc12 [N,N-Dihexyl-2-(4- fluorophenyl) indole- 3-acetamide] | inactive: -0.0625
CCN(CC)CCNC(=O)c1ccc(NC(C)=O)cc1 [N-Acetyl procainamide HCl] | inactive: 0.802
CCOC(=O)[C@H](CCc1ccccc1)N[C@@H](C)C(=O)N1[C@H](C(=O)O)C[C@H]2CCCC[C@@H]21 [Trandolapril] | inactive: -0.566
COc1cc2c(cc1OC)-c1cc3ccc(OC)c(OC)c3c[n+]1CC2 [Palmatine chloride] | inactive: -0.426
COC(=O)[C@H]1[C@H]2C[C@@H]3c4[nH]c5cc(OC)ccc5c4CCN3C[C@H]2C[C@@H](OC(=O)c2cc(OC)c(OC)c(OC)c2)[C@@H]1OC [Reserpine] | inactive: 0.0793
CC(C)C[C@H](NC(=O)[C@@H](O)[C@H](N)Cc1ccccc1)C(=O)O [Bestatin hydrochloride] | inactive: 3.55
C=CCc1ccc(O)c(-c2ccc(O)c(CC=C)c2)c1 [Honokiol] | inactive: -0.57
O=C(O)CN(CCOCCOCCN(CC(=O)O)CC(=O)O)CC(=O)O | inactive: -0.0924
O=c1c(-c2ccc(O)cc2)coc2cc(O)cc(O)c12 [Genistein] | inactive: 0.474
CN(CCOc1ccc(NS(C)(=O)=O)cc1)CCc1ccc(NS(C)(=O)=O)cc1 [Dofetilide] | inactive: -1.34
CNCC(O)c1ccc(O)c(O)c1 (racemic) [(+-)-Epinephrine hydrochloride] | inactive: -0.404
CC(=O)N1CCN(c2ccc(OCC3COC(Cn4ccnc4)(c4ccc(Cl)cc4Cl)O3)cc2)CC1 (stereo unspecified) [Ketoconazole] | inactive: -0.489
CC(C)NCC(O)c1ccc(NS(C)(=O)=O)cc1 (stereo unspecified) [Sotalol·HCl] | inactive: 1.24
C#C[C@]1(O)CC[C@H]2[C@@H]3CCc4cc(OC)ccc4[C@H]3CC[C@@]21C [Mestranol] | inactive: -0.215
COc1ccc2cccc(CCNC(C)=O)c2c1 [Agomelatine] | inactive: 0.448
CCN(CC)CCCC(C)Nc1c2ccc(Cl)cc2nc2ccc(OC)cc12 (stereo unspecified) [Quinacrine dihydrochloride] | inactive: -0.634
COc1ccc(/C=C/c2cc(OC)cc(=O)o2)cc1 [Yangonin] | inactive: 0.473
CNc1cc(NS(=O)(=O)c2ccc(N)cc2)nc(NC)n1 [Ro 04-6790 dihydrochloride] | inactive: 0.999
Cc1ccc(C(=O)NCCCCCC(=O)Nc2ccccc2N)cc1 | active: -2.89
